This note sets out measurements from PubChem BioAssay AID1347423 (Functional Genomics Laboratory (NCATS/FGL), 2020).

Hit rate of the full screen: of about 52,000 sequences, about 210 (0.4%) were called active.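 How the source made its calls: active means gene whose silencing raises cell survival under the drug, median off-target-corrected z-score across its silencing RNAs 2 or more; inactive means the rest.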 This is one part of the list.

This assay in a line: Resistance to Poly (ADP-Ribose) Polymerase inhibitor: Gene Identification via Genome-wide siRNA Screen. The settings on record: mouse BRCA2 R2336H ES cells, olaparib, CellTiter-Glo viability; stronger effect = higher value. In outline: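 Mouse BRCA2 R2336H ES cells were reverse-transfected with siRNA (20 nM final), treated at 48 h with 500 nM olaparib, and read by CellTiter-Glo after 72 h. Scores: MAD-based z per siRNA, median per gene, seed off-target correction.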
With CCCAUACUGUCACUUUAAGTT against Hist1h2bg, the z-score was inactive: -1.44.

Turning to GGAGAAAGACCAUUACUGUTT against Ly6e, the z-score is inactive: -0.824.

For the sequence GGGAUUUUAAGAGUUGACUTT against Cyp3a41, the z-score was inactive: 0.409.

In the case of CCAUUCGGGUGAAGUUCCATT against Lsm7, the z-score is inactive: -0.786.

Turning to GCCCGACCUGUUGAGAAGATT against Trip3, the z-score was inactive: 0.734.

For GCGGCGAUACUUCUACUUGTT against Adrbk1, the z-score was inactive: 0.195.

GCUACCAAUAGGAAUAAAATT against V1re2: the z-score is inactive: 0.624.

In the case of GGAAGUGUUCACCCGAUUCTT against Ckb, the z-score was inactive: -0.677.

In the case of GGGAGUUUGACAUCUUCUATT against Lrrk1, the z-score was inactive: -0.977.

Take “GGAGCUGGACCUGCUGUUATT against 0610006O14Rik”: the z-score was inactive: 1.74.

As to GUUUCUAGCUACCUUCCAGTT against Aqp11, the z-score is inactive: -0.853.

As to CCAUGCAGUACUUCAUCUUTT against Olfr1440, the z-score was inactive: 0.284.

As for UGAAAAGAGCAAUGAAGAATT against Olfr177, the z-score is inactive: -0.165.

For the sequence GGCUGUGGUGAAGACUUUCTT against Cd81, the z-score was inactive: -0.38.

In the case of GGCAGUGAAAGAACUGGACTT against Serpina1b, the z-score was inactive: 0.306.

GCCUAUUCACCAAAUCACATT against Sdfr2: the z-score is inactive: 0.192.

Consider GGUUUUACGAAGCUUACAATT against Myo7a, for which the z-score is inactive: -0.413.

GGCACCUCCUGUUACAUACTT against LOC73072: the z-score was inactive: -0.998.

On to GGACAAGGUCAGCAGUAUGTT against Ss18l1, for which the z-score was inactive: 1.21.

As to GCUUCAGAUUGGUGUGAUATT against Rec8L1, the z-score was inactive: 0.478.

Take GGAGGAAUUACAAUAGCCATT against Odz1: the z-score was inactive: 0.168.

In the case of GGCACUCCUCUUUGUUUUCTT against Olfr414, the z-score was inactive: 0.292.

In the case of “GGAGAAGGCAACUUCUGUUTT against 9930016F01Rik”, the z-score was inactive: -0.578.

As for GGUGAUUAAAUACUGCUCATT against V1rc12, the z-score is inactive: -1.

As to “GGAAGGUGUCAAUAAAGAUTT against 2310061G07Rik”, the z-score is inactive: 0.831.

Regarding “CCAAAAGCAGCACAUUUCATT against 5730590G19Rik”, the z-score is inactive: -0.203.

Take CGAUUAACCCACUCUUGUCTT against Mapkapk2: the z-score is inactive: -0.748.

Consider GAGACUAGACUAACCCUGUTT against Galr3, for which the z-score is inactive: 0.753.

CCAAAAGGACCAAUCAGUUTT against Slc1a2: the z-score was inactive: -1.16.

With GGUUCUAGAAAACAUGAACTT against Tdrd1, the z-score is inactive: -0.0126.

As for GUUCCACUACUUCUGCUCCTT against Olfr583, the z-score is inactive: 1.05.

Consider GCCAGUCGUAACAUAUUCUTT against Pip5k3, for which the z-score is inactive: 0.78.

As to GCCUCUGCAUAUGAUUACGTT against Myom1, the z-score was inactive: -0.0769.

On to “CCAUAUACCCUCGAUGCCATT against 1700095H12”, for which the z-score is inactive: 0.0373.

Consider CCAACUGUGAUCAGUGAGCTT against Shank3, for which the z-score was inactive: -0.254.

Consider GGACAAGACCAUCUUCGAUTT against BC010462, for which the z-score was inactive: 0.489.

GGAGCAUUAACUGUCUUGATT against Olfr356: the z-score is inactive: -1.71.

For GGAUCCACUAAUGUGAAAATT against Trim39, the z-score was inactive: -0.834.

On to “GAAGAGCAAGCCAUUUGAUTT against D930038D03Rik”, for which the z-score was inactive: -0.399.

Take CCUGGGCCUUAACAAGAAGTT against Rent1: the z-score was inactive: -0.395.

As to “CCAUACCCACUUACUGAAGTT against A830023L05”, the z-score was inactive: 0.28.

For the sequence GGAACUUGAACUAAAAAUGTT against Eaf1, the z-score is inactive: -0.554.

For the sequence GCAGGAAAUCUAAUGCACUTT against Gsdm3, the z-score was inactive: -0.0448.

For the sequence GCUCUGAGUAUUGAUGGCCTT against Hcfc1r1, the z-score is inactive: 1.09.

Regarding GCUAAGAGUCUUUGGAACGTT against Maff, the z-score was inactive: -0.43.

Take “GGAAGAUGCCAUCUUACACTT against 2010012O05Rik”: the z-score was inactive: -0.527.

Regarding GCAUCUCACUUUUGACCUATT against BC038286, the z-score was inactive: 0.862.

For CCUGGACAAGCUAUACCUUTT against Cdc45l, the z-score is inactive: 2.5.

UAUUAAGUGAGGGUAGUAGTT against Olfr1168: the z-score was inactive: -0.121.

As to GGAACGAGAACGAGUCCUUTT against Psd2, the z-score is inactive: -1.46.

Take CGGUUUUGUCAAAGCCCUGTT against Junb: the z-score is inactive: 1.73.

With GGACAAUGUCCUCUCGCUATT against Tgm2, the z-score is inactive: 1.98.

As for GGGAAGAGAGGAGAAUAUUTT against Stat4, the z-score was inactive: 1.15.

Take GUAUUCGGUAAUUUGACUUTT against Olfr921: the z-score was inactive: -0.192.

For the sequence “CCUCAGAUCUUGACCCUGGTT against 1110067I12Rik”, the z-score is inactive: -0.524.

For GGACUUGGACAAACAUCAATT against Cox7a1, the z-score is inactive: 0.317.

On to GGACUUUUAUUUUGUUAGCTT against Pacsin2, for which the z-score is active: 3.01.

As for GGUUUGAGAAUGUUUUAGGTT against Avpr1a, the z-score was inactive: -0.319.

As for “GGCCAUUACGAUGAAGAUUTT against 9430016A21Rik”, the z-score is inactive: -1.92.

As to GGCCCUAGAAAUAAUCUGCTT against Harp, the z-score is inactive: -0.212.

Consider GCCAGGUAUUGGAUGCCAUTT against Gm711, for which the z-score was inactive: 0.413.

As for GCAUGCAGCGGUCCAUAUUTT against Cacna2d1, the z-score was inactive: 0.316.

On to CGCCUUUUGCAUAUCAGAGTT against Defb39, for which the z-score is inactive: -0.445.

On to GGACUACCUCACACUCUUCTT against Oprs1, for which the z-score is inactive: -0.235.

In the case of GGAAAGUGUUGUCAAAAGATT against Olfr125, the z-score is inactive: 0.408.

As for GGUAAUGAGGACAUGGAUCTT against BC034664, the z-score was inactive: 0.82.

On to GAGAGUGAUCACUUAGGCATT against LOC381806, for which the z-score was inactive: -1.06.

For the sequence CGGAAAAAUGGAAGUAUAGTT against Gt4-1, the z-score is inactive: -0.708.

Regarding CCGACCAUCCCAAGUUAAATT against Olfr199, the z-score is inactive: -0.202.

Regarding GGCGGCUCCUUUCAACUUCTT against H2-Bf, the z-score was inactive: 0.111.

On to CCUUCUAGAUGUCUUAAGATT against Zfp41, for which the z-score is inactive: 0.959.

On to GGGAGAGAUUCUUCUUCAGTT against BC027174, for which the z-score was inactive: 0.239.

With CCUUAAAGCACAGUUCAAUTT against Gca, the z-score was inactive: 0.519.

With GCUAGCUGGAAGACACAUATT against Seh1l, the z-score is inactive: -2.14.

For the sequence GGAGAAAUAGGAUGGUCACTT against Zfp46, the z-score was inactive: 3.71.

Regarding CCUUAGUCGCUUUGUAUGGTT against Drp2, the z-score is inactive: 0.00509.

Consider CCGUGUGGUUAAAAACUUUTT against Nktr, for which the z-score is inactive: 1.56.

Take GGAGCCGUACAUCUUACACTT against Abhd1: the z-score was inactive: -1.27.

As for CGACUCCAUGUGGACUUAUTT against Gca, the z-score was inactive: 0.633.

In the case of GGGAGAAGAUAUAAAAACUTT against Krt20, the z-score was inactive: 0.414.

As for GCGGUUCUUUUCAGAGCACTT against Fbxo21, the z-score is inactive: 2.14.

As for GCUAACAAAGAUUCACCCATT against Aspn, the z-score is inactive: 1.44.

Consider “GGCAAUUCUGUGUGUCACUTT against 1700067I02Rik”, for which the z-score was inactive: -1.13.

With CCCUUACGACUUGGCUUUGTT against Atp6v0a1, the z-score is inactive: -1.85.

For GGCCUAUUUUAUCCACACUTT against Olfr64, the z-score was inactive: -1.9.

As for “GGAAGUGUAUUCAAGAAGUTT against 4932414K18Rik”, the z-score was inactive: 0.645.

As for GGCCAAACAACUGGUGAAGTT against Rdbp, the z-score is inactive: -3.1.

Turning to GGACAAAGAAGUGGAACCCTT against Adn, the z-score is inactive: -0.245.

Turning to GUCAUAAUGAGUCAUAGAATT against Olfr149, the z-score is inactive: 0.689.

Turning to CCCUCUAUCCCUCUGUAAGTT against Grcc9, the z-score is inactive: 1.04.

Consider CCUACAAUGAUUUUCUCAUTT against Impdh2, for which the z-score is inactive: -2.32.

For the sequence GCUAGUCCAACUCAUCAUUTT against Olfr430, the z-score was inactive: -0.0182.

With GGUGAUAUUAUACAUUCACTT against Rnd1, the z-score is inactive: 0.43.

With GGUUAUAGACAUCCUUCAUTT against BC016076, the z-score is inactive: 0.742.

For the sequence GGAGGCACAGAGAUUGAAGTT against Sry, the z-score is inactive: 0.938.

For GAUGCUGUAAUCUUGUGAATT against Sprrl3, the z-score was inactive: -0.206.

Regarding GGAACAUUUCUGGAUUGUUTT against Muc1, the z-score was inactive: -0.255.

As to GGAUGGAAGCACUGACUAUTT against Lyzl1, the z-score was inactive: -0.175.

In the case of GCUGCCCUGAAGGAUAUACTT against Grn, the z-score was inactive: 1.14.

Take GCACCUAUACAACCUCGUGTT against Nisch: the z-score is inactive: 0.731.

Turning to GCAUGAUCAGUCAGCACUATT against Nr1d2, the z-score was inactive: 0.405.

GGUUCUUUAAUGGGUUAUGTT against Tpd52l2: the z-score is inactive: -1.12.

As to GGGCAACAUUCUUCAGAAUTT against Defb5, the z-score was inactive: 0.23.

For CGAAUUGGAUAAUACCCAUTT against Tpte, the z-score was inactive: 0.836.

GCACAUUUUACCAUUGCUATT against Hcfc1: the z-score was inactive: -0.129.
